Laboratory results taken from paper PMC7819943, “Rice protein-binding microarrays: a tool to detect cis-acting elements near promoter regions in rice”.
The other results are listed elsewhere or left out.

Chains of the proteins cited; added tags and fusions are not shown.
UniProt Q0JBA9, entry or part of it: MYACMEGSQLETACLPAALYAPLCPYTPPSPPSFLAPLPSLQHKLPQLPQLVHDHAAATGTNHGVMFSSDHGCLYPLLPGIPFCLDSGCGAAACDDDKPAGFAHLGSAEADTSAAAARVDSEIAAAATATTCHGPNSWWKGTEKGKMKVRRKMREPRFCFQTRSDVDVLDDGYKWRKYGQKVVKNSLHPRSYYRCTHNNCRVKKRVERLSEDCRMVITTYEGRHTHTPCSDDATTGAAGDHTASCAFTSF

These sequences were tested against OsWRKY34 (Oryza sativa, UniProt Q0JBA9 1-250) (assay: protein-binding microarray (RPBM); PBS, 2% BSA, 51.3 ng/ul salmon testes DNA, 50 uM zinc acetate, 200 nM TF, 25 C, 1 h; high values mean tight binding). Conditions: protein: recombinant; tags: N-terminal polyhistidine and DsRed monomer fusion (pET32a); label: CyDye5-dUTP incorporated in the synthesized complementary strand; 3' TTTTT single-stranded linker to array surface; dsDNA, one strand shown.
How it was run: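 A custom Agilent array was converted to double-stranded form by primer extension with Cy5-dUTP and blocked with 2% BSA. Protein at 200 nM in PBS with 2% BSA, salmon testes DNA and 50 µM zinc acetate was applied for 1 h at 25 °C, followed by washing. The proteins were polyhistidine–DsRed N-terminal fusions of transcription factors, expressed in E. coli BL21-CodonPlus and Ni–NTA-purified. The binding signal is per-feature fluorescence intensity (arbitrary units) from an Axon 4000B scanner.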

Sequence | binding signal
CTTGTACATCTGTCTTGCTAGAGTCTTTCACAAGATTACACGGAGTCACCTAGTGCAG | 8080 fluorescence intensity (a.u.)
AGTTTTTTTTTTGTTTGTTTTATCTATGTCCAGTCCATTTCGGAGTCACCTAGTGCAG | 13400 fluorescence intensity (a.u.)
TTTACTTCTCGTTTGCTCTATACGCTCTAAGGCTGCCTTTCGGAGTCACCTAGTGCAG | 9210 ± 695 fluorescence intensity (a.u.)
CCATCTCTACTTCTCTACTTTATTTCGTGAGAGAGCTTCACGGAGTCACCTAGTGCAG | 8380 fluorescence intensity (a.u.)
GCAGGTCAAACATTTTTAGCTTTGACCATTAATAGCAAAACGGAGTCACCTAGTGCAG | 12900 fluorescence intensity (a.u.)
GCCACCACCACCGCTCCGCCCGCCGCACCACCCACCGATGCGGAGTCACCTAGTGCAG | 8170 fluorescence intensity (a.u.)
TCCACTATGGCCATCCTGATATCTTTGATCGTCTTTTCCACGGAGTCACCTAGTGCAG | 17500 fluorescence intensity (a.u.)
AAACTATCTGCCACTCCTCTCTCTCGTCTCTCTTCACCTCCGGAGTCACCTAGTGCAG | 8600 fluorescence intensity (a.u.)
GGCTAATTTACGGTTATTGTTGCGGTTATATTTTTAGCATCGGAGTCACCTAGTGCAG | 9950 fluorescence intensity (a.u.)
TCTCCTCTTACAATGTCATTACTTCTCTTCGGTGTTTTGCCGGAGTCACCTAGTGCAG | 9000 fluorescence intensity (a.u.)
ACGTTATTTATTGTTTTAGGTTCAATCTACGAGTTTCTTTCGGAGTCACCTAGTGCAG | 10700 fluorescence intensity (a.u.)
GAGCTCTGCTCGTTTCTTGGCGTCTTCTTTCTTCTTCTTCCGGAGTCACCTAGTGCAG | 8490 fluorescence intensity (a.u.)
CCGTATTCTGAACATTTTCTTAATTTCTTATAGCTTGTACCGGAGTCACCTAGTGCAG | 10000 fluorescence intensity (a.u.)
CACCTCCACCCAGCTGCGTCGCCACTCTTCACCCACCATCCGGAGTCACCTAGTGCAG | 8080 fluorescence intensity (a.u.)
TAATCCTCTGGTTTTTTGCGTTCCCAGATATATAGGTTCCCGGAGTCACCTAGTGCAG | 9490 fluorescence intensity (a.u.)
ATGCTGCTCCGGACTCGTCTTCCTTGTCGTCGCCTCACGCCGGAGTCACCTAGTGCAG | 9000 fluorescence intensity (a.u.)
CTTCCTTTCGTCATGCGTACAAGCCATCCCCACATCACCACGGAGTCACCTAGTGCAG | 8790 fluorescence intensity (a.u.)
GAACTTATCTGCAATTGCAGTCCTATCAGGCATAAATTATCGGAGTCACCTAGTGCAG | 8120 fluorescence intensity (a.u.)
CGCTTTCCTCTGTTTCTCCGCCGCGCTCGTTCGTCGTCTCCGGAGTCACCTAGTGCAG | 21400 fluorescence intensity (a.u.)
TTCTGCTGGTTTTGGTACCTGAACATCTCCATACCCATATCGGAGTCACCTAGTGCAG | 13600 fluorescence intensity (a.u.)
TCCCGTTCTTGTTCACGGTCAACTCATCGTGGCCCACAATCGGAGTCACCTAGTGCAG | 9350 fluorescence intensity (a.u.)
CCCTCACCGCTCACTGGCTCTCGTCTCTCGCCGCCGCCGCCGGAGTCACCTAGTGCAG | 12400 fluorescence intensity (a.u.)
AACCCGGCCGCTCATGCATCACAGAACCTTATCCTGTTCGCGGAGTCACCTAGTGCAG | 10300 fluorescence intensity (a.u.)
TAGCGTCGTTGACTTTTGAACACATTTTTATCATTTAAATCGGAGTCACCTAGTGCAG | 22400 fluorescence intensity (a.u.)
GACCATAGTGTCTAGTCCAGTCCTCGGAAGTTCGTACTCTCGGAGTCACCTAGTGCAG | 8420 fluorescence intensity (a.u.)
CTTCACTAATCACGGGCTTAAACGCATCTTGTTACATTCTCGGAGTCACCTAGTGCAG | 9840 fluorescence intensity (a.u.)
CCACCAATATATGCTTTTTCAGCTCGCACCATATGCACTGCGGAGTCACCTAGTGCAG | 8340 fluorescence intensity (a.u.)

Reformatted: results already given.
Sequence	binding signal
CCGTATTCTGAACATTTTCTTAATTTCTTATAGCTTGTACCGGAGTCACCTAGTGCAG	10000 fluorescence intensity (a.u.)
CACCTCCACCCAGCTGCGTCGCCACTCTTCACCCACCATCCGGAGTCACCTAGTGCAG	8080 fluorescence intensity (a.u.)

More records follow.

Sequence | binding signal
AAAATTCTTGGTCTTCTTGGTCTCGGTTAGTTCGGTTCGACGGAGTCACCTAGTGCAG | 8110 fluorescence intensity (a.u.)
ATTCTCTCTCGCCTCATTGACACTACTGCAACATTATTTTCGGAGTCACCTAGTGCAG | 12900 fluorescence intensity (a.u.)
TATGTCTAATATTCCTATGTTTTTCATGTGTGCTAATCAACGGAGTCACCTAGTGCAG | 9190 fluorescence intensity (a.u.)
GTTGGTTCCTCTCCGTTATGTTCCTGTGCTAGCTTCTGCCCGGAGTCACCTAGTGCAG | 11600 fluorescence intensity (a.u.)
AATAGTTTGTAGGTGTGGCAATTAAGCGTGAGTTTCGGTCCGGAGTCACCTAGTGCAG | 8120 fluorescence intensity (a.u.)
GCCCGCCTGTCATTTTATGTACTTTTCGTTGCCGTGTTGGCGGAGTCACCTAGTGCAG | 9000 fluorescence intensity (a.u.)
GCTATTATTTTCTTTCCTACTATAAAGTTCAGTTAGTACACGGAGTCACCTAGTGCAG | 10200 fluorescence intensity (a.u.)
CCCGCAGCCCGCGCCCGTCTTTCTCGTCCGAAGTCCTCTGCGGAGTCACCTAGTGCAG | 8030 fluorescence intensity (a.u.)
GCTTGAGCTCTGGGTTTATTAATTTTTTTTGGGGTTGCTGCGGAGTCACCTAGTGCAG | 9220 fluorescence intensity (a.u.)
CCGGCTGCCGCTCCACCGCTGTCGCCCACTTCGGCCACTACGGAGTCACCTAGTGCAG | 8750 fluorescence intensity (a.u.)
ACGCTTCTCCTGCCTGCCTGCCTGCTGCTGCTGCCGCGCGCGGAGTCACCTAGTGCAG | 9240 fluorescence intensity (a.u.)
CGAGTCTTTTGTGCGGGTGGTTGGGGCGTGGGCGGTGGCGCGGAGTCACCTAGTGCAG | 23100 fluorescence intensity (a.u.)
CGTTGTCGCTTTCCTCCACGTATGGTGTTTTTTCTCCTCCCGGAGTCACCTAGTGCAG | 8530 fluorescence intensity (a.u.)
CTACAACTCCTGGCTGTTACCCAAGCAAGTTAGCTTTTCTCGGAGTCACCTAGTGCAG | 9630 fluorescence intensity (a.u.)
ACTCTAAGTCATTTTATAATGTATCCATGGTTGGTCAACTCGGAGTCACCTAGTGCAG | 9620 fluorescence intensity (a.u.)
TTTTCTTGTTTGATTGACATAATGGGCCCTACATATTTTTCGGAGTCACCTAGTGCAG | 8440 fluorescence intensity (a.u.)
CCACCGCTTTAGGCGCAGCCGACCGGAATTCACTCTCTCACGGAGTCACCTAGTGCAG | 9640 fluorescence intensity (a.u.)
GTGTGTTTCTCCTTGCTTATTTTGTCCATTCATTCATTCTCGGAGTCACCTAGTGCAG | 13800 fluorescence intensity (a.u.)
GTTTGTTGATGTTATTTCTTGGATTGAGGCGTTTGTCAATCGGAGTCACCTAGTGCAG | 8040 fluorescence intensity (a.u.)
CGTATCCCACACCTCGCTCACCTCACTGCCCTCGCTTTCGCGGAGTCACCTAGTGCAG | 9500 fluorescence intensity (a.u.)
GTTAATCTATGGCTCTTTTTTTTTTCCGCCGGAACGGTTCCGGAGTCACCTAGTGCAG | 10800 fluorescence intensity (a.u.)
AGGTTGCTCTGGATTTTTGCGCGTGTCGCTGTTGGTTTTGCGGAGTCACCTAGTGCAG | 8050 fluorescence intensity (a.u.)
AACTTCATCTTGCATTCATATTTTGTCAGCCTTATCTAACCGGAGTCACCTAGTGCAG | 11200 fluorescence intensity (a.u.)
CGTTGGCAGTTAATCCGTAACCTTAGGTTGAGCATATACTCGGAGTCACCTAGTGCAG | 8600 fluorescence intensity (a.u.)
TTTGTGATTAGATCTGTCTGTCCTTTTTCGGTTGAACGTTCGGAGTCACCTAGTGCAG | 10800 fluorescence intensity (a.u.)
GAACAAAGTGACCAGCGTCCTTTCATGCCAGCTACAAACACGGAGTCACCTAGTGCAG | 9060 fluorescence intensity (a.u.)
CTGGAGGATCTTCACAACACCGGTATCATCTCATCTCATCCGGAGTCACCTAGTGCAG | 12400 fluorescence intensity (a.u.)
